Results: PubChem BioAssay AID1671190 (National Center for Advancing Translational Sciences (NCATS), 2021)
Values joined by “and” are separate entries in the source; they are usually repeats but may differ in a detail not shown here. Equal entries are not always repeated. The whole screen tested about 580,000 compounds, of which about 6,100 (1.1%) were called active. Inconclusive means that the source gave no clear call. Such entries were picked first, then a sample of the others. Calls come from the whole dose curve; as a rule, active = well fitted inhibition curve with a large enough effect; inconclusive = small, poorly fitted or top-dose-only effect, or another doubt; inactive = no such curve, though single readings can be large or run the other way. Potencies beside an inconclusive call are fits to weak or partial responses and may not hold up.

Sequences of proteins named here, by UniProt entry; tags and fusion partners are left off. A change or cut given only in a name is not applied to a line headed by its entry.
UniProt P18054: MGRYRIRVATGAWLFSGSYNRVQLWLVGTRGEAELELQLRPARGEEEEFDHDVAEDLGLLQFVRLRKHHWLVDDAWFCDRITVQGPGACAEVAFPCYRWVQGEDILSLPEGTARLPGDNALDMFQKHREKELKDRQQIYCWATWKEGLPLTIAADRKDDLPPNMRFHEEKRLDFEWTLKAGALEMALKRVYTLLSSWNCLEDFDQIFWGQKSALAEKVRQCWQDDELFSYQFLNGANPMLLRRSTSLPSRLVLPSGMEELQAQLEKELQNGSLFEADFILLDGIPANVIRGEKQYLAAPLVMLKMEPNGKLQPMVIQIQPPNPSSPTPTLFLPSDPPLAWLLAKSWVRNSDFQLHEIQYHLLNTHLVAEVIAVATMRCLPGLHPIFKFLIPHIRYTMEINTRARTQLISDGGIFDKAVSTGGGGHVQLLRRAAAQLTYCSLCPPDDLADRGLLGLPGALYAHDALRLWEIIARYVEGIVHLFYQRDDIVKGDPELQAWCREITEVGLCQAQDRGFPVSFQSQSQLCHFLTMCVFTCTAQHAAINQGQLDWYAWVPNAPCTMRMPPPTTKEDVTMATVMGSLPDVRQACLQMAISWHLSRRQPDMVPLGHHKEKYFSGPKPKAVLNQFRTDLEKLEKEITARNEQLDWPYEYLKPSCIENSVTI

Each compound was assayed against Polyunsaturated fatty acid lipoxygenase ALOX12 (Homo sapiens) (UniProt P18054) (assay: Primary qHTS assay for inhibitors of human arachidonate 12S-lipoxygenase (ALOX12): Round 2). Settings: purified 12hLO, xylenol orange hydroperoxide absorbance; activity change, negative = inhibition: at 108 µM (top of the series) unless noted.
Method in brief: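 Purified human 12hLO (150 nM final) in 25 mM Hepes, 0.01% Triton X-100, pH 7.0 was preincubated 15 min at room temperature with compound. Then 40 uM arachidonic acid was added, 30 min. Hydroperoxide was read by Fe-XO absorbance ratio 573/405 nm.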
% is set by controls: 0 for no effect and ±100 for the full control effect; potency is the fitted concentration of half-maximal effect.

Row | Compound | Potency | activity change, negative = inhibition
1 | COc1ccc2[nH]c(=O)c(CNc3ccccc3)cc2c1 | inconclusive: 31.6 µM [inhibitor, single point] | 
2 | CSc1nsc(SCC(=O)Nc2cccc(C(C)=O)c2)n1 | inconclusive: 126 µM [inhibitor, partial curve, poor fit] | 
3 | CCCC(C(=O)O)N1C(=O)/C(=C/c2cccn2C)SC1=S (configuration not stated) | inconclusive: 20 µM [inhibitor, partial curve, poor fit] | 
4 | O=C(NCCCN1CCOCC1)c1ccc2c(c1)N(Cc1ccccc1)CCS2 |  | inactive: -6.71%
5 | O=c1cc(CSc2nnc(-c3ccco3)o2)c2ccccc2[nH]1 | inconclusive: 56.2 µM [inhibitor, partial curve, poor fit] | 
6 | Cc1ccc(NC(=O)CN(C)C(=O)c2cccnc2Nc2cccc(C(F)(F)F)c2)cc1 |  | inactive: -24.5%
7 | COc1ccc(C(=O)NCc2ccc3c(c2)cc(C)n3C)cc1OC |  | inactive: 3.31%
8 | Cc1cc(C)cc(NC(=O)C2CCCN2c2ncnc3ccccc23)c1 (configuration not stated) | inconclusive: 39.8 µM [inhibitor, partial curve, poor fit] | 
9 | Oc1ccc(Nc2ccccc2)cc1 | inconclusive: 28.2 µM [inhibitor, partial curve, poor fit] | 
10 | COc1ccc(-c2nc(SC(C)C(=O)Nc3ccc(NC(C)=O)cc3)n[nH]2)cc1 (configuration not stated) | inconclusive: 56.2 µM [inhibitor, partial curve, poor fit] | 
11 | COc1ccc(CN2CCN(Cc3cccc(Oc4ccccc4)c3)CC2)c(OC)c1OC | inconclusive: 39.8 µM [inhibitor, partial curve, poor fit] | 
12 | O=C1c2ccccc2CC1Sc1nnc(-c2ccncc2)o1 (configuration not stated) |  | inactive: 0%
13 | COc1ccc(/C=C(\C#N)C(=O)C(C)(C)C)cc1Br |  | inactive: -37.2%
14 | COc1ccc(C2=NN(C(=O)CCC(=O)O)C(c3ccc(F)cc3)C2)cc1 (configuration not stated) | inconclusive: 31.6 µM [inhibitor, single point] | 
15 | O=C(Nc1ccccc1C(=O)N1CCCCCC1)c1ccc(Cl)cc1 | inconclusive: 141 µM [inhibitor, partial curve, poor fit] | 
16 | CC(C)C(NC(=O)Cc1ccc(N2CCCC2=O)cc1)c1nc2ccccc2[nH]1 (configuration not stated) | inconclusive: 56.2 µM [inhibitor, partial curve, poor fit] | 
17 | COc1ccc(C(=O)C=Cc2ccc3c(c2)OCO3)cc1OC | inconclusive: 28.2 µM [inhibitor, partial curve, poor fit] | 
18 | NC(=O)c1ccc(-c2c(-c3ccccc3)sc3ccccc23)cc1 | inconclusive: 3.98 µM [inhibitor, full curve, poor fit] | 
19 | COC(=O)N/N=C/c1cc([N+](=O)[O-])cc(Br)c1O |  | inactive: 9.77%
20 | COCOc1cccc(CN2CCC2(C)C(=O)NCCNC(C)=O)c1 (configuration not stated) |  | inactive: 0.491%
21 | O=C(O)c1ccnc(C(=O)O)c1 |  | inactive: 4.57%
22 | O=C(/C=C/c1ccc(F)cc1)NC(=S)N1CCOCC1 |  | inactive: -6.04%
23 | C[C@@H](NCC1CCCCC1)c1onc(-c2ccc(F)cc2)c1C(=O)O | inconclusive: 11.2 µM [inhibitor, full curve] | 

Quoted at random: 4 entries already listed, in no set order.
Row | Compound | Potency | activity change, negative = inhibition
22 | O=C(/C=C/c1ccc(F)cc1)NC(=S)N1CCOCC1 |  | inactive: -6.04%
6 | Cc1ccc(NC(=O)CN(C)C(=O)c2cccnc2Nc2cccc(C(F)(F)F)c2)cc1 |  | inactive: -24.5%
18 | NC(=O)c1ccc(-c2c(-c3ccccc3)sc3ccccc23)cc1 | inconclusive: 3.98 µM [inhibitor, full curve, poor fit] | 
7 | COc1ccc(C(=O)NCc2ccc3c(c2)cc(C)n3C)cc1OC |  | inactive: 3.31%

Later entries.

Row | Compound | Potency | activity change, negative = inhibition
24 | O=C(O)c1cc(Cl)cc(Cl)c1Br | inconclusive: 11.2 µM [inhibitor, partial curve, poor fit] | 
25 | COc1cccc(N2CCN(c3ncc4c(n3)CCN(Cc3ccc(Br)cc3)C4)CC2)c1 | inconclusive: 44.7 µM [inhibitor, partial curve, poor fit] | 
26 | Cc1ccc(-c2noc(CSc3nnc(Cc4ccccc4)n3-c3ccc(Cl)cc3)n2)cc1 |  | inactive: -6.6%
27 | Cc1ccc(-n2c(-c3ccco3)n[nH]c2=S)cc1 | inconclusive: 100 µM [inhibitor, partial curve, poor fit] | 
28 | S=C(c1cn(Cc2ccccc2)c2ccccc12)N1CCOCC1 | inconclusive: 56.2 µM [inhibitor, partial curve, poor fit] | 
29 | CCC(C(=O)O)n1c(C(F)(F)F)nc2ccccc21 (configuration not stated) | inconclusive: 44.7 µM [inhibitor, partial curve, poor fit] | 
30 | CC(C)(O)C#Cc1ccccc1C(=O)NC(CC(=O)O)c1ccccc1 (configuration not stated) |  | inactive: 55.2%
31 | CCCn1c(C)cc(C(=O)COC(=O)c2cc3ccccc3oc2=O)c1C | inconclusive: 50.1 µM [inhibitor, partial curve, poor fit] | 
32 | COc1ccccc1Nc1nc(-c2sc(NC(=O)C(C)(C)C)nc2C)cs1 | inconclusive: 50.1 µM [inhibitor, partial curve, poor fit] | 
33 | COc1cccc(CC(=O)N2CCc3nnc([C@@H]4C[C@@H](O)CN4C)n3CC2)c1 | inconclusive: 3.16 µM [inhibitor, full curve] | 
34 | CC(C)Cn1c(=O)c2c(ncn2Cc2ccco2)n(Cc2ccccc2)c1=O |  | inactive: -8.46%
35 | Cc1cccc(NC(=S)NC2CC3CCCC(C2)N3Cc2cccs2)c1 (configuration not stated) | inconclusive: 70.8 µM [inhibitor, partial curve, poor fit] | 
36 | Cc1ccc(-n2nc(C)c(=O)c(-c3ccccc3)c2NC(=O)c2ccco2)cc1C | inconclusive: 35.5 µM [inhibitor, partial curve, poor fit] | 
37 | CC1(C(=O)NS(=O)(=O)c2cccc(C#N)c2)CCN1C(=O)Cc1cc(F)ccc1F (configuration not stated) | inconclusive: 50.1 µM [inhibitor, partial curve, poor fit] | 
38 | O=C(/C=C/c1ccco1)OCc1nnc(-c2ccccc2)o1 |  | inactive: -28.8%
39 | CN(C)c1cccc(F)c1C(=O)NC(=O)Nc1ccc(Cl)cc1 | inconclusive: 79.4 µM [inhibitor, partial curve, poor fit] | 
40 | Cc1ccccc1-c1nccc(-n2ccnc2)n1 | active: 7.94 µM | 
41 | Cc1c(-c2ccc(Cl)cc2)c(=O)oc2c(CN3CCOCC3)c(O)ccc12 | inconclusive: 79.4 µM [inhibitor, partial curve, poor fit] | 
42 | CN(C)CCn1c2c(c(SCC(=O)Nc3ccccc3)nc1=O)CCCC2 | inconclusive: 35.5 µM [inhibitor, partial curve, poor fit] | 
43 | Cn1c2ccccc2c(=O)c2ccc(C#CC3(N)CCCCC3)cc21 | inconclusive: 0.316 µM [inhibitor, full curve, poor fit] | 
44 | Cc1ccc2[nH]c3c(=O)n(CCCN4CCN(C)CC4)cnc3c2c1 | inconclusive: 4.47 µM [inhibitor, full curve, poor fit] | 
45 | S=C(NCC1CC1)N/N=C/c1ccccc1Cl | inconclusive: 3.16 µM [inhibitor, full curve, poor fit] | 
46 | COC(=O)[C@@H]1C[C@@H](NS(=O)(=O)c2ccc(C(F)(F)F)cc2)CN1C | inconclusive: 25.1 µM [inhibitor, full curve, poor fit] | 

Row | Compound | Potency | activity change, negative = inhibition
47 | COc1ccc(CNC(=O)CCCc2ccccc2)cc1 | inconclusive: 56.2 µM [inhibitor, partial curve, poor fit] | 
48 | CCN(Cc1nc2cc(Cl)ccc2c(=O)[nH]1)C(=O)c1cc(Cl)c2c(c1)OCO2 |  | inactive: -32%
49 | CCCNC(=O)N1CCCC(c2nc(-c3cccnc3)no2)CCNC(=O)CC1 (configuration not stated) |  | inactive: 67.6%
50 | NS(=O)(=O)c1ccc(CCNC(=O)c2ccc(Cn3c(=O)[nH]c4ccccc4c3=O)cc2)cc1 |  | inconclusive: -32.9% [inhibitor]
51 | CN(Cc1c(F)cccc1Cl)C(=O)c1cccc(NS(C)(=O)=O)c1 | inconclusive: 89.1 µM [inhibitor, single point] | 
52 | Cc1ccc2c(CN3c4ccc(S(N)(=O)=O)cc4CC3C)cc(=O)oc2c1C (configuration not stated) | inconclusive: 89.1 µM [inhibitor, partial curve, poor fit] | 
53 | COc1cc(/C=N/NC(=S)NC2CC3C=CC2C3)cc(OC)c1OC (configuration not stated) | inconclusive: 112 µM [inhibitor, partial curve, poor fit] | 
54 | CCOC(=O)c1sc(NC(=O)C2CCCO2)c(C(=O)OCC)c1C (configuration not stated) |  | inactive: 1.96%
55 | Cc1cc(SCC(=O)N/N=C/c2ccc(O)cc2O)c(C)cc1Br | inconclusive: 0.224 µM [inhibitor, full curve, poor fit] | 
56 | O=C(CCN1C(=O)c2ccccc2C1=O)Nc1ccc(S(=O)(=O)N2CCOCC2)cc1 | inconclusive: 126 µM [inhibitor, partial curve, poor fit] | 
57 | O=C(C(c1ccccc1)c1ccccc1)N1CCN(Cc2ccccn2)CC1 | inconclusive: 0.447 µM [inhibitor, partial curve, poor fit] | 
58 | Cc1ccc(CNC(=O)c2ccc3noc(-c4ccccc4)c3c2)cc1 | inconclusive: 0.398 µM [inhibitor, full curve, poor fit] | 
59 | CC1COCCN1C(=O)Cc1nn(C)c(=O)c2ccccc12 (configuration not stated) |  | inactive: 30.9%
60 | COc1ccc(-c2cc3nc(C)c(CCC(=O)N4CCN(c5cc(C)ccc5C)CC4)c(C)n3n2)c(OC)c1 |  | inactive: -9.59%
61 | O=C(Nc1ccccc1N1CCCCC1)c1ccco1 |  | inactive: -5.85%
62 | COc1ccc(C(=O)Nc2cc(NC(=O)C(C)C)ccc2C)cc1F |  | inactive: -6.83%
63 | COc1ccc(NC(=O)CSC2=C(C#N)C(c3ccco3)C(C(=O)Nc3nc4ccccc4s3)=C(C)N2)cc1 (configuration not stated) |  | inactive: 403%
64 | CCOC(=O)CSc1nc2ccccc2c(=O)n1-c1ccccc1OC | inconclusive: 56.2 µM [inhibitor, partial curve, poor fit] | 
65 | Cc1ccc(Nc2nc(C(=O)OCC(=O)c3ccc(Br)cc3)cs2)cc1 | inconclusive: 1.78 µM [inhibitor, full curve, poor fit] | 
66 | CC(NCCCOc1cccc2ccccc12)c1ccccc1 (configuration not stated) | inconclusive: 0.398 µM [inhibitor, full curve, poor fit] | 
67 | CN[C@H]1CC[C@@H](c2ccc(Cl)c(Cl)c2)c2ccccc21 | inconclusive: 100 µM [inhibitor, single point] and inconclusive: 70.8 µM [inhibitor, partial curve, poor fit] and inconclusive: 50.1 µM [inhibitor, partial curve, poor fit] | 
